# According to publication PMC7819943, “Rice protein-binding microarrays: a tool to detect cis-acting elements near promoter regions in rice”:
# Sequences of proteins named here, by UniProt entry; tags and fusion partners are left off.
# UniProt Q0JBA9, entry or part of it: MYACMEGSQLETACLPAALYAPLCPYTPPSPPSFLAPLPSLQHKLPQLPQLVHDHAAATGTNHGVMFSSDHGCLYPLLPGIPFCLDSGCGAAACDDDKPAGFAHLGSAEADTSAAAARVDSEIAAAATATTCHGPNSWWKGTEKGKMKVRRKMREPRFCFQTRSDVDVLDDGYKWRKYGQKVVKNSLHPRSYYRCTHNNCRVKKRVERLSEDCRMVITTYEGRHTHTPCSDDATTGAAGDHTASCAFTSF
# Some of the results follow.
# Biological target: OsWRKY34 (Oryza sativa, UniProt Q0JBA9 1-250)
# Assay: protein-binding microarray (RPBM); PBS, 2% BSA, 51.3 ng/ul salmon testes DNA, 50 uM zinc acetate, 200 nM TF, 25 C, 1 h; high values mean tight binding
# Conditions: protein: recombinant; tags: N-terminal polyhistidine and DsRed monomer fusion (pET32a); label: CyDye5-dUTP incorporated in the synthesized complementary strand; 3' TTTTT single-stranded linker to array surface; dsDNA, one strand shown
# How it was run: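 Per-feature fluorescence intensity (arbitrary units), read on an Axon 4000B scanner, is the binding signal. Transcription factors carrying an N-terminal polyhistidine tag and DsRed fusion were expressed in E. coli BL21-CodonPlus and purified on Ni–NTA. A custom Agilent array, made double-stranded by primer extension with Cy5-dUTP and blocked with 2% BSA, was incubated with 200 nM protein in PBS, 2% BSA, salmon testes DNA and 50 µM zinc acetate at 25 °C for 1 h and then washed.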
row,Sequence,binding signal
1,CATCGAATCATCGCTCGACTTTGGTTATCAGTCTTTTTTTCGGAGTCACCTAGTGCAG,10200 fluorescence intensity (a.u.)
2,CCTTGCTGCGGCGAACCGCAGCCCACCGCTACAGTGCTGTCGGAGTCACCTAGTGCAG,8020 fluorescence intensity (a.u.)
3,CCACCATGGTCTCGCTCATTCTGTTTGCTTCACCTACTCTCGGAGTCACCTAGTGCAG,14500 fluorescence intensity (a.u.)
4,AGTTATATATATAGTGGGGAGTTACCTTTGAACCGTGCTCCGGAGTCACCTAGTGCAG,9050 fluorescence intensity (a.u.)
5,TGTGGGGTCATGGATTTGAATGTAAAAATGTTAACACTTGCGGAGTCACCTAGTGCAG,10100 fluorescence intensity (a.u.)
6,AACTATAATTAATAGTAACAAAGAGGGAGGGGAGGGTTCGCGGAGTCACCTAGTGCAG,8820 fluorescence intensity (a.u.)
7,CCGGAGCTCGCCCGTCATCGTCGCCCACCGAGCCACTTCACGGAGTCACCTAGTGCAG,8140 fluorescence intensity (a.u.)
8,GATGAATCTATTCGCATCACTCGTTCGTCAATTTCAGCTGCGGAGTCACCTAGTGCAG,8800 fluorescence intensity (a.u.)
9,TTTCACGAGTTTTCAACACTTAGCTCATTTTCACCGATATCGGAGTCACCTAGTGCAG,8170 fluorescence intensity (a.u.)
10,TCCTAACCCTTCATTCATTTCCCAATCCCAATCCCACCCTCGGAGTCACCTAGTGCAG,8220 fluorescence intensity (a.u.)
11,GACCAGATTGTTTTGGAGGCTTGCTTTCTTCATCGTTATGCGGAGTCACCTAGTGCAG,9600 fluorescence intensity (a.u.)
12,AGGAGGGCGGAGGAGGTGGTGGTGGTGGTGGTGGAGAGAGCGGAGTCACCTAGTGCAG,25700 fluorescence intensity (a.u.)
13,CCTCCTTTTGACTCAGCAAGTCAATTGTGGTCAACCTGCCCGGAGTCACCTAGTGCAG,8970 fluorescence intensity (a.u.)
14,TCCCTGCTTATTTCATTTTCCAGGAGGCTAAAACATGCTTCGGAGTCACCTAGTGCAG,8270 fluorescence intensity (a.u.)
15,ATCTTTCTCTCCTCCTCTCTTCTAGCAATCGGTCGTTTCCCGGAGTCACCTAGTGCAG,8390 fluorescence intensity (a.u.)
16,GAGAGTCGACAACCGTTGATCTGTCCATCGACGGCGCGGGCGGAGTCACCTAGTGCAG,8050 fluorescence intensity (a.u.)
17,ATGTATAACACTGTTGACTTTTTAAGATATATTTGATCATCGGAGTCACCTAGTGCAG,15900 fluorescence intensity (a.u.)
18,GGACAACATCTTCGTGGCTTCCCTGTCCACTCTTTCCTGCCGGAGTCACCTAGTGCAG,10900 fluorescence intensity (a.u.)
19,CGCCGTCCGCCGCCTTGTCGGCTCGCCGGCGAGCCGTCTCCGGAGTCACCTAGTGCAG,10200 fluorescence intensity (a.u.)
20,AGATACACTGTGTTGCTTGCGTTCTTGTGCACTCTTGTATCGGAGTCACCTAGTGCAG,9510 fluorescence intensity (a.u.)
21,TGGTGTGTTTTTCCCATTCTGACCCTTGTGAGGGCACTATCGGAGTCACCTAGTGCAG,8820 fluorescence intensity (a.u.)

row,Sequence,binding signal
1,TGGCCTTTGTGGTTAATGTGTTGTTTCATATCTCTTTCTCCGGAGTCACCTAGTGCAG,10500 fluorescence intensity (a.u.)
2,GCGGTGGTGGCCGTGGTGGTGGAGGAGGTGGAGGCGCTGCCGGAGTCACCTAGTGCAG,10100 fluorescence intensity (a.u.)
3,CTGCAGCTTCCTACCTCCATCCATCCATTCATCTTCTTCTCGGAGTCACCTAGTGCAG,8360 fluorescence intensity (a.u.)
4,CTATTCCTAGTTTCTATCACTCCTACATCGTAAGTTGTCACGGAGTCACCTAGTGCAG,8520 fluorescence intensity (a.u.)
5,ACTGCTTTGTTCTATTTGATTATTTTTTTACTCATCAGATCGGAGTCACCTAGTGCAG,15900 fluorescence intensity (a.u.)
6,TCGCGTCGCGTTTCGACCTCGCGCTCTGGGTCTGGGTGTCCGGAGTCACCTAGTGCAG,8330 fluorescence intensity (a.u.)
7,TCACGTACGTCCCCTCTACCGGCGACGTCGTCGTTGACTGCGGAGTCACCTAGTGCAG,10200 fluorescence intensity (a.u.)
8,TTTCCTCACCCATCTCATCAACGCCTTCTTGCTCTCTATCCGGAGTCACCTAGTGCAG,8280 fluorescence intensity (a.u.)
9,GTTTGTATGTTGTCTGGATTCTTTCGGTGTCTCCTTCAATCGGAGTCACCTAGTGCAG,15100 fluorescence intensity (a.u.)
10,CAAAATACATCACATCCGATTTTAGATTGCTGCTATATTCCGGAGTCACCTAGTGCAG,8440 fluorescence intensity (a.u.)
11,AGGAGGCGGGGCGGGGCGGCGGCGGCGGCGGCGGCGCCCGCGGAGTCACCTAGTGCAG,11500 fluorescence intensity (a.u.)
12,AATACCAAAATTTTTGCCACCAAAACTTTTGCCATTTGCCCGGAGTCACCTAGTGCAG,8300 fluorescence intensity (a.u.)
13,TTTCCGCTCTACTTTGCTATGCCAACTACTCTTCTCTCCTCGGAGTCACCTAGTGCAG,11300 fluorescence intensity (a.u.)
14,GCGTGCCTGCCTCTTCTGTGTCTCTCTGCGACAGCCATCGCGGAGTCACCTAGTGCAG,8900 fluorescence intensity (a.u.)
15,TACAGAGCAGTGGTAGTGGTAGTGATGTATATTGATCTTTCGGAGTCACCTAGTGCAG,8140 fluorescence intensity (a.u.)
16,CATAGTAATAGTATCGTCGTGTTCACTCTCCGACGACTTACGGAGTCACCTAGTGCAG,9540 fluorescence intensity (a.u.)
17,GTTTGGTCTAATATCATTTGTTGGAGTTGCTGCATTATTTCGGAGTCACCTAGTGCAG,8840 fluorescence intensity (a.u.)
18,CCATTTGTCCACCACCACCTCCACCACCTGACACGTCGTCCGGAGTCACCTAGTGCAG,8050 fluorescence intensity (a.u.)
19,TCCTCGCCCATGGCGTTTCACGTCGCGTGCCCCATCACATCGGAGTCACCTAGTGCAG,9080 fluorescence intensity (a.u.)
20,TTTTTTGTTTCTGTTGGGCTTATTTTGTGAACATCTGACCCGGAGTCACCTAGTGCAG,8550 fluorescence intensity (a.u.)
21,TAAATGGCCATGATTCTTGCGCGTTTCTGCTCTGTCTGTCCGGAGTCACCTAGTGCAG,9830 fluorescence intensity (a.u.)

row,Sequence,binding signal
1,CGCCGTCTCCATCAGATCATTATTCCTTTCTCCTTCCTGTCGGAGTCACCTAGTGCAG,8320 fluorescence intensity (a.u.)
2,TTCTAATTTTTTCGTCGTTTTCCTTAATTTTGTTTGAACTCGGAGTCACCTAGTGCAG,12000 fluorescence intensity (a.u.)
3,ATCGGAGGACCTGGGAGAGGTTAGGGTTAGGGTTATGGGGCGGAGTCACCTAGTGCAG,8640 fluorescence intensity (a.u.)
4,GGTACCACGCTTTGATGTGCCTTATGTGGCACTTTATTTTCGGAGTCACCTAGTGCAG,10400 fluorescence intensity (a.u.)
5,TTGCGTGTACTTCCGGGTGGGAGGTTGATGGCGATGGTGACGGAGTCACCTAGTGCAG,15200 fluorescence intensity (a.u.)
6,CCCGCCCGAACGACCACCAATCCACCATTACACCACTTAACGGAGTCACCTAGTGCAG,8320 fluorescence intensity (a.u.)
7,TTTCAGCCGATCTTACTTGATTTAGCCTTATATCTTATGTCGGAGTCACCTAGTGCAG,8140 fluorescence intensity (a.u.)
8,ACATTTTTCGCTTTTGGACCACATAATCTCCTTGTAATCTCGGAGTCACCTAGTGCAG,11300 fluorescence intensity (a.u.)
9,CGGCCCGGCCGCCAGATCCAGTAGGGGCGGGAGGGGAGGCCGGAGTCACCTAGTGCAG,9150 fluorescence intensity (a.u.)
10,AGGGCTCACTTCCACTGACATGCGGGGCCCACGCTTTTCCCGGAGTCACCTAGTGCAG,8650 fluorescence intensity (a.u.)
11,GAGGGATGTCTTATATCTAGTTTTGTGGTTGGAGGATGATCGGAGTCACCTAGTGCAG,8770 fluorescence intensity (a.u.)
12,GTGCTGTTCCTCCGTTCTTCCTTGCACACGACGGCTGCCCCGGAGTCACCTAGTGCAG,13300 fluorescence intensity (a.u.)
13,TTGGGACGCTCGATTTTTTCTTTCTGGCCGGACGGCCGATCGGAGTCACCTAGTGCAG,8540 fluorescence intensity (a.u.)
14,CTAGGTCCCATGATAGCAGCTCGAGAAGACGAGAATCACTCGGAGTCACCTAGTGCAG,8180 fluorescence intensity (a.u.)
15,TGCTCCGGTGATCTCTCCCCGTCCTTGTAACGTAGACGACCGGAGTCACCTAGTGCAG,8150 fluorescence intensity (a.u.)
16,TCCCCAGCCGCAAACATTCTCGCATTCTCCACGACTCCACCGGAGTCACCTAGTGCAG,8120 fluorescence intensity (a.u.)
17,CTGTGCTGCTTGCGTTGCGTTGGCCGTTGGTAGGTTTTGGCGGAGTCACCTAGTGCAG,9300 fluorescence intensity (a.u.)
18,TGTATTGTGGGCCCACACGTCATCCTTTCTTTCCAACCCTCGGAGTCACCTAGTGCAG,8070 fluorescence intensity (a.u.)
19,ATACTTGTTAGTTCTGTAAACAGAAGACTGCTATCTTGCCCGGAGTCACCTAGTGCAG,8530 fluorescence intensity (a.u.)
20,GCTAGATCTCACCACCAATGGCGCTTCCGTTCTGAGTCACCGGAGTCACCTAGTGCAG,8700 fluorescence intensity (a.u.)
21,GTCGATGTGTCTTTTGTGTGTAGTTCTTGTAATTGTTGTGCGGAGTCACCTAGTGCAG,8220 fluorescence intensity (a.u.)

row,Sequence,binding signal
1,CAGATACATCTCATTATTTGACCACCACCACCACCACTACCGGAGTCACCTAGTGCAG,10100 fluorescence intensity (a.u.)
2,TTGGTCCAAGTGGTGTAAAGTTTTGGTTCTTTTTATTGACCGGAGTCACCTAGTGCAG,10000 fluorescence intensity (a.u.)
3,GCCCGCTCTATATCATCGCTGCCTTTTCCGGCCCAGCCCACGGAGTCACCTAGTGCAG,10400 fluorescence intensity (a.u.)
4,TTGCTTCTCTTTCCACTATTTTGTTACACACTCCTGTTTCCGGAGTCACCTAGTGCAG,10700 fluorescence intensity (a.u.)
5,CTTGCTACATTATACATGTTCTATCTTTGTCTTGCTTGTTCGGAGTCACCTAGTGCAG,8210 fluorescence intensity (a.u.)
6,GGTCATCATCCTGGTTAGTAACATCTAGGCGTTTTTCATTCGGAGTCACCTAGTGCAG,8370 fluorescence intensity (a.u.)
7,CGTCGTTGTCGTCCGTAGCGGGAGGGAGGGAGAGAGTACGCGGAGTCACCTAGTGCAG,8400 fluorescence intensity (a.u.)
8,AATTGGGGTAAAAGTGGGAATGGGGTAACGGAGATCGGAACGGAGTCACCTAGTGCAG,8430 fluorescence intensity (a.u.)
9,CCTTATTTTGACTATTCTTGTCTCAACTCAGGGATGTCCTCGGAGTCACCTAGTGCAG,9400 fluorescence intensity (a.u.)
10,GCGCTCTCCGGTGTGGGATCTCCGAGTTTTTTTTTTCGTTCGGAGTCACCTAGTGCAG,9630 fluorescence intensity (a.u.)
11,TCACTCTCCCATACTACTAGTACCACTCTACTAGACTCCGCGGAGTCACCTAGTGCAG,8500 fluorescence intensity (a.u.)
12,AAAAATGCTCGGTGATTTTTATTGTTTTTTTTTCTTTTGCCGGAGTCACCTAGTGCAG,8690 fluorescence intensity (a.u.)
13,GTGTATGTGGATCGAATCGAATTGGAGTTGGTATGGGCGTCGGAGTCACCTAGTGCAG,8050 fluorescence intensity (a.u.)
14,CTAAATTTGCCATAAATGTTACTACCCTTTTACCTAATATCGGAGTCACCTAGTGCAG,8960 fluorescence intensity (a.u.)
15,AAACGTACCATTCGGCTTTCCTTTATGTCCTTCCAACACCCGGAGTCACCTAGTGCAG,8580 fluorescence intensity (a.u.)
16,TCCCTACCTAGCTCGTCTTCCTCTACTACTTATACCCGCCCGGAGTCACCTAGTGCAG,8830 fluorescence intensity (a.u.)
17,TAATACTATGGTTTCACTGTTAACATAATTCGGCTAGTTACGGAGTCACCTAGTGCAG,8790 fluorescence intensity (a.u.)
18,CCGTTTTTTTTCGAGAAATTTTTTTTCCGCCCGCTTCCTTCGGAGTCACCTAGTGCAG,11600 fluorescence intensity (a.u.)
19,GGGGAGTAAAATGGATTTTTTTTCTGTTAAGAAAATGGTTCGGAGTCACCTAGTGCAG,10100 fluorescence intensity (a.u.)
20,TCGCGTACACCGTAGTTAGCCAAGCCGCTCCGCCTCGTTTCGGAGTCACCTAGTGCAG,9350 fluorescence intensity (a.u.)
21,GTTTGTATCTCTACTACTCTCTCCGTTTCATATTTTAAGACGGAGTCACCTAGTGCAG,8290 fluorescence intensity (a.u.)

# In a second layout: entries from further up.
row	Sequence	binding signal
1	TGGCCTTTGTGGTTAATGTGTTGTTTCATATCTCTTTCTCCGGAGTCACCTAGTGCAG	10500 fluorescence intensity (a.u.)
5	ACTGCTTTGTTCTATTTGATTATTTTTTTACTCATCAGATCGGAGTCACCTAGTGCAG	15900 fluorescence intensity (a.u.)
16	TCCCCAGCCGCAAACATTCTCGCATTCTCCACGACTCCACCGGAGTCACCTAGTGCAG	8120 fluorescence intensity (a.u.)
5	CTTGCTACATTATACATGTTCTATCTTTGTCTTGCTTGTTCGGAGTCACCTAGTGCAG	8210 fluorescence intensity (a.u.)
